# Measured data: PubChem BioAssay AID1508588 (Peter MacCallum Cancer Centre, 2020)
# Purpose: 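Genome-wide search for knock-downs that heighten vemurafenib action in melanoma cells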 (primary screen)
# Cells: human WM266.4 melanoma cells (BRAF V600 mutant)
# Reagents: siRNA pool against human genes, 40 nM
# Timing: 96 h from transfection to read-out
# Treatment: vemurafenib 300 nM (about IC25), added 48 h after transfection, for 48 h; comparison arm got DMSO vehicle only
# Detection: 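Cell gain (DAPI nuclei at end minus before drug, mean of two replicates) and medium lactate by absorbance per cell, both as ratio to non-targeting siRNA, also grouped into fold-change classes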
# Reading the numbers: cell gain with vemurafenib: higher = more cell gain than with non-targeting siRNA; lactate per cell with vemurafenib: higher = more lactate made per cell
# Hit rule: 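Enhancement is called by pairing each knock-down's vehicle-arm and drug-arm fold-change classes for viability or glycolysis; which class combinations qualify is not given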
# Meaning of the calls: active = enhances vemurafenib effect; inactive = no enhancement seen
# This is one part, drawn at random, of about 18,000 reagents. 790 of them (4.4%) count as active. 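Calls rest on a combination of fold-change classes in drug and vehicle arms, not all shown here.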 Reagent sequences are not shown.
target gene,cell gain with vemurafenib,lactate per cell with vemurafenib,outcome
NRSN1,0.87,1.23,inactive
ALDH5A1,0.7,0.74,inactive
CLECL1,0.59,0.36,active
ITIH6,1.01,0.58,inactive
CUL7,0.46,0.54,inactive
FAM20C,0.91,0.76,inactive
RNF4,1.02,0.86,inactive
TRHDE,0.79,1.23,inactive
OR2T6,0.81,0.76,inactive
LGI2,0.25,1.33,inactive
CASD1,0.43,1.52,inactive
ADAM23,0.98,0.56,inactive
TMEM144,0.37,0.7,active
RPS5,-0.06,1.7,inactive
RASGRP4,1.15,1.25,inactive
REEP4,0.33,0.48,inactive
GPC5,0.49,1.02,inactive
ZNF451,0.46,1.93,inactive
SLCO2B1,0.53,0.88,inactive
RAI2,0.6,0.78,inactive
KLHDC7B,0.63,0.54,inactive
INHBC,0.85,0.88,inactive
NCKAP1,0.77,1.52,inactive
CRACDL,0.97,0.64,inactive
PINK1,0.68,0.39,inactive
GAS2L1,0.71,0.97,inactive
CRABP2,0.78,0.78,inactive
CLCC1,1.16,0.72,inactive
API5,0.79,0.7,inactive
TAS2R8,0.64,0.51,inactive
KATNBL1,0.95,0.85,inactive
FOXE3,1.01,0.88,inactive
SGSM3,0.77,0.44,inactive
KIAA2012,0.69,1.06,inactive

A portion taken from the entries so far:
target gene,cell gain with vemurafenib,lactate per cell with vemurafenib,outcome
TAS2R8,0.64,0.51,inactive
KATNBL1,0.95,0.85,inactive
